# Results reported in PubChem BioAssay AID192 (DTP/NCI, 2004).
# The list is a part of this screen's results and no random one: it is rich in T/C values a quarter to a half above the control, in often repeated tests (any T/C) and in doses without a T/C. Other doses and runs of a compound stand elsewhere. T/C gives the treated animals as a percentage of the vehicle group. Some entries give survivors of the animals treated and no T/C: the source holds a T/C of zero for them, seemingly a mark for toxic or unscored doses. Some survivor counts are full or nearly so, which does not show that the dose was tolerated: the source hardly ever lists a survival T/C far under the control, and the zero likely stands for such cases as well. Counts of survivors are from the toxicity check (mostly the fifth day) where no day follows; animals may have died later. Schedule codes are those of the source, taken here to give the interval after Q, in days (D) or hours (H), and the number of doses after X. Additions like (4×) give the number of equal values in this list. Some doses were run more than once; the values are given in rising order. Where survival is the endpoint, this PubChem deposit counts one and a half times the control or more as active, and values a quarter to a half above the control carry no call in these data; other NCI protocols may use other cut-offs. Some T/C values carry the count of animals alive at the toxicity check (mostly the fifth day); where none is given, no animal had died by that day.
# Test system: BDF1 mice, B16 melanoma ip, median survival T/C
# Assay: NCI In Vivo Anticancer Drug Screen. Data for tumor model B16 Melanoma (intraperitoneal) in B6D2F1 (BDF1) mice
# Settings: T/C endpoint: median survival time, higher T/C = longer survival
# How it was run: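 In this screen, activity was judged from survival or tumor size in treated versus vehicle-treated tumor-bearing mice, reported as T/C.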
# [1] = dose: 100.0 mg/kg/injection, schedule: Q01DX009 (ip), vehicle: Klucel (hydroxypropylcellulose) (HPC)
# [2] = dose: 200.0 mg/kg/injection, schedule: Q01DX009 (ip), vehicle: Klucel (hydroxypropylcellulose) (HPC)
# [3] = dose: 400.0 mg/kg/injection, schedule: Q01DX009 (ip), vehicle: Klucel (hydroxypropylcellulose) (HPC)
# [4] = dose: 100.0 mg/kg/injection, schedule: Q01DX009 (ip), vehicle: saline with Tween-80
# [5] = dose: 200.0 mg/kg/injection, schedule: Q01DX009 (ip), vehicle: saline with Tween-80
# [6] = dose: 25.0 mg/kg/injection, schedule: Q01DX009 (ip), vehicle: Klucel (hydroxypropylcellulose) (HPC)
# [7] = dose: 50.0 mg/kg/injection, schedule: Q01DX009 (ip), vehicle: Klucel (hydroxypropylcellulose) (HPC)
# [8] = dose: 400.0 mg/kg/injection, schedule: Q01DX009 (ip), vehicle: saline
# [9] = dose: 25.0 mg/kg/injection, schedule: Q01DX009 (ip), vehicle: water
# [10] = dose: 50.0 mg/kg/injection, schedule: Q01DX009 (ip), vehicle: water
# [11] = dose: 200.0 mg/kg/injection, schedule: Q01DX009 (ip), vehicle: saline
# [12] = dose: 100.0 mg/kg/injection, schedule: Q01DX009 (ip), vehicle: saline
smiles,measurement,setting,value
Cc1cc(C)nc(NC(=O)Nc2ccccc2)c1,survivor count,[1],9 of 10
same,survivor count,[2],10 of 10
same,survivor count,[3],10 of 10
CC(C)(C)CC(C)(C)c1ccc(O)c(O)c1,survivor count,"dose: 50.0 mg/kg/injection, schedule: Q01DX009 (ip), vehicle: saline with Tween-80",10 of 10
same,survivor count,[4],9 of 10
CC1CN1C(=O)NCCCCCCNC(=O)N1CC1C (stereo not given),T/C,"dose: 1.25 mg/kg/injection, schedule: Q01DX009 (ip), vehicle: Klucel (hydroxypropylcellulose) (HPC)",132 % of control
same,T/C,"dose: 2.5 mg/kg/injection, schedule: Q01DX009 (ip), vehicle: Klucel (hydroxypropylcellulose) (HPC)",138 and 144 % of control [7 of 10 alive]
same,survivor count,"dose: 5.0 mg/kg/injection, schedule: Q01DX009 (ip), vehicle: Klucel (hydroxypropylcellulose) (HPC)",8 of 10
same,survivor count,"dose: 10.0 mg/kg/injection, schedule: Q01DX009 (ip), vehicle: Klucel (hydroxypropylcellulose) (HPC)",10 of 10
same,survivor count,"dose: 10.0 mg/kg/injection, schedule: Q01DX009 (ip), vehicle: saline",10 of 10
same,survivor count,"dose: 20.0 mg/kg/injection, schedule: Q01DX009 (ip), vehicle: Klucel (hydroxypropylcellulose) (HPC)",10 of 10
Cc1cccc(/C=N/OCCC(C)C)n1,survivor count,[5],10 of 10
CCOc1ccc(Br)cc1/C=N\N=C\c1cc(Br)ccc1OCC,survivor count,[1],10 of 10
same,survivor count,[4],6 of 6
same,survivor count,[2],10 of 10
same,survivor count,[5],6 of 6
same,survivor count,[3],9 of 10
same,survivor count,"dose: 400.0 mg/kg/injection, schedule: Q01DX009 (ip), vehicle: saline with Tween-80",5 of 6
CC(C)(C)C1CC(C(F)(F)F)(C(F)(F)F)OS(=O)O1 (stereo not given),survivor count,"dose: 12.5 mg/kg/injection, schedule: Q04DX003 (ip), vehicle: saline with Tween-80",10 of 10
same,survivor count,"dose: 25.0 mg/kg/injection, schedule: Q04DX003 (ip), vehicle: saline with Tween-80",10 of 10
same,survivor count,"dose: 50.0 mg/kg/injection, schedule: Q04DX003 (ip), vehicle: saline with Tween-80",10 of 10
Cn1ncc2c(N)ncnc21,survivor count,"dose: 12.5 mg/kg/injection, schedule: Q01DX009 (ip), vehicle: Klucel (hydroxypropylcellulose) (HPC)",9 of 10
same,survivor count,[6],10 of 10
same,survivor count,[7],10 of 10
same,survivor count,[1],3 of 10
COc1ccc(C(=O)/C=C/c2ccc3c(c2)OCO3)cc1OC,survivor count,[3],9 of 10
C[C@]12CC[C@H](OC3OC(CO)C(O)C(O)C3O)C[C@H]1CC[C@@H]1[C@@H]2CC[C@]2(C)[C@@H](C3=CCOC3=O)CC[C@]12O (stereo not given in full),survivor count,"dose: 4.0 mg/kg/injection, schedule: Q01DX009 (ip), vehicle: saline",10 of 10
COc1cc2ccc(C(C)N)cc2cc1OC (stereo not given),survivor count,[8],0 of 10
O=NN(CCCl)C(=O)NCCO,T/C,"dose: 1.56 mg/kg/injection, schedule: Q01DX009 (ip), vehicle: water",129 % of control
same,survivor count,"dose: 3.13 mg/kg/injection, schedule: Q01DX009 (ip), vehicle: water",10 of 10
same,T/C,"dose: 6.25 mg/kg/injection, schedule: Q01DX009 (ip), vehicle: water, evaluated on day 45",127 % of control
same,T/C,"dose: 6.25 mg/kg/injection, schedule: Q01DX009 (ip), vehicle: water, evaluated on day 60",147 % of control
same,survivor count,"dose: 12.5 mg/kg/injection, schedule: Q01DX009 (ip), vehicle: water",10 of 10 (2×)
same,survivor count,[9],10 of 10 (2×)
same,survivor count,[10],8 of 10 and 10 of 10
OCCOCCOCCN1CCN(C(c2ccccc2)c2ccc(Cl)cc2)CC1 (stereo not given),survivor count,[11],1 of 10
[CH3][Sn]([CH3])([CH3])[O]C(=O)CCl,survivor count,"dose: 0.38 mg/kg/injection, schedule: Q01DX009 (ip), vehicle: saline",10 of 10
same,survivor count,"dose: 0.75 mg/kg/injection, schedule: Q01DX009 (ip), vehicle: saline",4 of 10
same,survivor count,"dose: 1.5 mg/kg/injection, schedule: Q01DX009 (ip), vehicle: saline",10 of 10
same,survivor count,"dose: 3.0 mg/kg/injection, schedule: Q01DX009 (ip), vehicle: saline",0 of 10
OCCN1CCN(CCCN2c3ccccc3Sc3ccc(C(F)(F)F)cc32)CC1,survivor count,"dose: 1.56 mg/kg/injection, schedule: Q01DX009 (ip), vehicle: saline",9 of 10
same,survivor count,"dose: 3.12 mg/kg/injection, schedule: Q01DX009 (ip), vehicle: saline",10 of 10
same,survivor count,"dose: 6.25 mg/kg/injection, schedule: Q01DX009 (ip), vehicle: saline",9 of 10
same,survivor count,"dose: 12.5 mg/kg/injection, schedule: Q01DX009 (ip), vehicle: saline",5 of 10
same,survivor count,"dose: 25.0 mg/kg/injection, schedule: Q01DX009 (ip), vehicle: saline",4 of 10
C[Si](C)(C)Cc1ccccc1,survivor count,[3],10 of 10
CC12CC(C(=O)O)C3(O)CC(C)(C1)CC(C)(C2)C3 (stereo not given) (tested in a mixture with another compound),survivor count,[3],0 of 10 and 6 of 10
ClCCN(CCCl)c1ccc(/C=C/c2ccccc2)cc1,survivor count,[2],8 of 8
CC(=O)OCC1OC(n2cnc3c(=S)nc[nH]c32)C(OC(C)=O)C1OC(C)=O (stereo not given),survivor count,"dose: 200.0 mg/kg/injection, schedule: Q01DX009 (ip), vehicle: suspension in saline",10 of 10
same,survivor count,"dose: 400.0 mg/kg/injection, schedule: Q01DX009 (ip), vehicle: suspension in saline",9 of 10
C[n+]1cccc(NC(=O)c2ccc(NC(=O)C34CCC(C(=O)Nc5ccc(C(=O)Nc6ccc[n+](C)c6)cc5)(CC3)CC4)cc2)c1,T/C,"dose: 5.0 mg/kg/injection, schedule: Q01DX009 (ip), vehicle: saline with Tween-80",136 % of control
same,survivor count,"dose: 20.0 mg/kg/injection, schedule: Q01DX009 (ip), vehicle: saline with Tween-80",10 of 10
same,survivor count,"dose: 40.0 mg/kg/injection, schedule: Q01DX009 (ip), vehicle: saline with Tween-80",10 of 10
COc1cc(/C=C2/c3cc(Cl)ccc3-c3c(Cl)cc(Cl)cc32)cc(OC)c1OC,survivor count,"dose: 1.6 mg/kg/injection, schedule: Q01DX009 (ip), vehicle: saline with Tween-80",6 of 6
same,survivor count,"dose: 50.0 mg/kg/injection, schedule: Q01DX009 (ip), vehicle: saline",6 of 6
same,survivor count,[12],6 of 6
same,survivor count,[11],6 of 6
same,survivor count,[8],6 of 6
CC[CH2][Pb]([CH2]CC)([CH2]CC)[O]C(=O)c1ccccc1,survivor count,"dose: 6.25 mg/kg/injection, schedule: Q01DX009 (ip), vehicle: Klucel (hydroxypropylcellulose) (HPC)",10 of 10
N#Cc1nc2ccccc2nc1C#N,survivor count,[6],7 of 10
same,survivor count,[7],1 of 10
CCNC(Cc1ccccc1)C1CCCO1 (stereo not given),survivor count,[11],0 of 10
same,survivor count,[8],0 of 10
CCCCCCCC(=O)CC(C)C,survivor count,[3],9 of 10
Nc1nc2c(ncn2C2OC(CO)C(O)C2O)c(=O)[nH]1.Nc1nc2c(ncn2C2OC(CO)C(O)C2O)c(=O)[nH]1.[NH2-].[NH2-].[Pt+2] (stereo not given),T/C,[9],131 % of control
same,T/C,[10],134 % of control [9 of 10 alive]
same,T/C,"dose: 100.0 mg/kg/injection, schedule: Q01DX009 (ip), vehicle: water",131 % of control
CCC(NC(=O)OC(C)(C)C)C(=O)O (stereo not given),survivor count,[12],10 of 10
same,survivor count,[11],10 of 10
same,survivor count,[8],9 of 10
